Experimental data reported in publication PMC3423437, “Characterization of Multisugar-Binding C-Type Lectin (SpliLec) from a Bacterial-Challenged Cotton Leafworm, Spodoptera littoralis” (PLoS ONE, 2012).
Converted amounts (≈) assume the structure as drawn.

Tested on: T1, SpliLec (purified mature peptide)
T1 construct: mature peptide, 291 residues (18-residue signal peptide removed), two CRDs; pPROEX HTa His tag, E. coli DH5alpha, Ni-NTA; 35 kDa subunit, 140 kDa tetramer
Test: inhibition of hemagglutination, cow erythrocytes (serial dilution)
Format: binding, Spodoptera littoralis
Conditions: SpliLec 1.0 µg/ml, TBS, 5 mM CaCl2, 37°C, 1 h; competes with erythrocytes
Source text: inhibition of hemagglutination, cow erythrocytes (serial dilution) on SpliLec (purified mature peptide)

Compound | Minimum inhibitory concentration (mM or μg/ml) / Purified SpliLec | Minimum inhibitory concentration (mM or μg/ml) / Immunized haemolymph / 72 h
OC[C@H]1OC(O)[C@H](O)[C@@H](O)[C@H]1O (stereo partly drawn) [D-Galactose] | 3 mM (≈ 540 µg/mL) | –
OC[C@H]1OC(O)[C@H](O)[C@@H](O)[C@@H]1O (stereo partly drawn) [D-Glucose] | 30 mM (≈ 5400 µg/mL) | –
OC[C@H]1OC(O)[C@@H](O)[C@@H](O)[C@@H]1O (stereo partly drawn) [D-Mannose] | 10 mM (≈ 1800 µg/mL) | –
OC1OC[C@@H](O)[C@H](O)[C@H]1O (stereo partly drawn) [D-Xylose] | 50 mM (≈ 7510 µg/mL) | –
OCC1(O)OC[C@@H](O)[C@@H](O)[C@@H]1O (stereo partly shown) [Fructose] | 100 mM (≈ 18000 µg/mL) | –
OC[C@H]1O[C@@H](O[C@H]2[C@H](O)[C@@H](O)C(O)O[C@@H]2CO)[C@H](O)[C@@H](O)[C@H]1O (stereo partly shown) [Lactose] | – | 10 mM (≈ 3420 µg/mL)
CC(=O)N[C@H]1C(O)O[C@H](CO)[C@H](O)[C@@H]1O (stereo partly shown) [N- Acetylgalactosamine] | – | 10 mM (≈ 2210 µg/mL)
CC(=O)N[C@H]1C(O)O[C@H](CO)[C@@H](O)[C@@H]1O (stereo partly shown) [N- Acetylglucosamine] | 30 mM (≈ 6640 µg/mL) | –
OC[C@H]1O[C@H](OC[C@H]2O[C@H](O[C@]3(CO)O[C@H](CO)[C@@H](O)[C@@H]3O)[C@H](O)[C@@H](O)[C@@H]2O)[C@H](O)[C@@H](O)[C@H]1O [Raffinose] | – | 10 mM (≈ 5040 µg/mL)
OC[C@H]1O[C@@](CO)(O[C@H]2O[C@H](CO)[C@@H](O)[C@H](O)[C@H]2O)[C@@H](O)[C@@H]1O [Sucrose] | 100 mM (≈ 34200 µg/mL) | –
